No constants are given. Whether binding was seen depends on the method and setting. Some results given as binding are weak or reduced against the parent protein; the word gives no strength.
Each binder was assayed against IGF1R (UniProt P08069) (assay: MRD identification, Example 48).

Protein sequences, listed by entry. Tags and fused reporters are not part of them. Residues count along the entry.
UniProt P08069, residues 31-932: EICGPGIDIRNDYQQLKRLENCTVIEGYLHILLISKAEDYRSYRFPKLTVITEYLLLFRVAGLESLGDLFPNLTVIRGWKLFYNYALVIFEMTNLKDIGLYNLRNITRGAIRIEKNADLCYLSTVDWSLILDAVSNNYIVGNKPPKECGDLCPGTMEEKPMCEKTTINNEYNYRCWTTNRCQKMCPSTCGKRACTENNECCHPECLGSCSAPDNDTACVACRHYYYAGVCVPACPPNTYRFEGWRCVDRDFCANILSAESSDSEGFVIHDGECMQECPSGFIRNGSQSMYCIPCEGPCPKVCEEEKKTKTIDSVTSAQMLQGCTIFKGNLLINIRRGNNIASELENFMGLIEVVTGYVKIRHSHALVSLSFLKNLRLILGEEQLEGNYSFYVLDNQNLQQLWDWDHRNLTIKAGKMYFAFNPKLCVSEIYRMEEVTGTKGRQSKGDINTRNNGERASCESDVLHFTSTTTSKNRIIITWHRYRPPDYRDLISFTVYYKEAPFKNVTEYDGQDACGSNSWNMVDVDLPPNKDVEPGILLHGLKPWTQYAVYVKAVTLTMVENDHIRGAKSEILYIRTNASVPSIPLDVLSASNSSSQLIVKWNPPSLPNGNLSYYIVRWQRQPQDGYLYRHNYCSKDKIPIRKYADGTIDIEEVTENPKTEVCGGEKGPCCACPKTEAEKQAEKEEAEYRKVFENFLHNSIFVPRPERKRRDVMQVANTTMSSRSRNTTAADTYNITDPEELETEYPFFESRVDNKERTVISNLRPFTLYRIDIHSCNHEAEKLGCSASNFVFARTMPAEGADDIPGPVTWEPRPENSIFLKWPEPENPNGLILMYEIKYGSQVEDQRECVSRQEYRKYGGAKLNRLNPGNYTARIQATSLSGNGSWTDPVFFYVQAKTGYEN

| binding | Binder |
| --- | --- |
| binds | FYEWFDMQVK [IGF91] |
| binds | IPMLCWEFTELCFDLN [IGF267] |
| binds | VPPLCMEFTELCFHDP [IGF265] |
| binds | VPPLCLEFPELCFTDS [IGF282] |
| binds | IPLLCFEFVELCFDLT [IGF258] |
| binds | VPALCWEFPELCFHYQ [IGF278] |
| binds | SHPLCTEFIELCFGFE [IGF196] |
| binds | VHWLCAEFEELCFDQT [IGF280] |
| binds | FYEWFQLQMD [IGF77] |
| binds | AHPLCVEFSELCFNED [IGF266] |
| binds | TPALCLEFWELCFDEA [IGF264] |
| binds | PPLLCFEFPELCFGYE [IGF287] |
| binds | IPFLCYEFQELCFGTL [IGF290] |
| binds | VPFLCLEFSELCFTDP [IGF253] |
| binds | EVWEGYDWLY [IGF95] |
| binds | SFYAWFDEQV [IGF93] |
| binds | FYETLFELAY [IGF79] |
| binds | FYEWFEAALI [IGF82] |
| binds | LHFLCLEFQELCFDSN [IGF281] |
| binds | AHPLCLEFSELCFEAV [IGF255] |
| binds | IPYLCLEFPVLCFQDT [IGF260] |
| binds | VHWEGYQWVY [IGF78] |
| binds | PHPLCLEFIELCFGTH [IGF270] |
| binds | DDALCKEFPELCFQNV [IGF259] |
| binds | IPFLCLEFEELCFHLD [IGF271] |
| binds | VPSLCLEFPELCFNEA [IGF269] |

| binding | Binder |
| --- | --- |
| binds | FYEWFHEQVI [IGF75] |
| binds | AELLCREFTELCFLRD [IGF291] |
| binds | TPFLCLEFHELCFGEH [IGF274] |
| binds | AHALCLEFLELCFEER [IGF289] |
| binds | VPQLCLEFQELCFGEH [IGF268] |
| binds | ASQLCGEFPELCFDKV [IGF257] |
| binds | TPSLCLEFSELCFADG [IGF279] |
| binds | ADLLCAEFTELCFDVI [IGF254] |
| binds | FYEWFEPQVT [IGF84] |
| binds | PQLLCLEFAELCFWDI [IGF275] |
| binds | EFYYWFFDQY [IGF85] |
| binds | DHWLCIEFSELCFGKS [IGF283] |
| binds | DWRLCQEFTELCFMDG [IGF285] |
| binds | YLSLCAEFTELCFHTE [IGF286] |
| binds | PHALCREFHELCFEKS [IGF276] |
| binds | QFYEWFEAQT [IGF76] |
| binds | ADFYQWFQNQV [IGF92] |
| binds | EHPLCLEFPELCFSHP [IGF272] |
| binds | EHPLCEEFKELCFGTN [IGF284] |
| binds | RLPLCVEFSELCFDLR [IGF277] |
| binds | PHILCLEFAELCFDHL [IGF261] |
| binds | FYDWFDMQVQ [IGF83] |
| binds | PHPLCQEFEELCFETV [IGF256] |
| binds | PHYLCLEFSELCFDER [IGF273] |
| binds | DHKLCNEFPELCFHDV [IGF288] |
| binds | VPALCLEFKELCFHDR [IGF263] |

Source: patent publication US20160046678A1 (ZYNGENIA, published 2016)
